Among the data in paper PMC10113886 are binding values, retold here.

Sequences of proteins named here, by UniProt entry; tags and fusion partners are left off. A change or cut given only in a name is not applied to a line headed by its entry.
UniProt Q9W266: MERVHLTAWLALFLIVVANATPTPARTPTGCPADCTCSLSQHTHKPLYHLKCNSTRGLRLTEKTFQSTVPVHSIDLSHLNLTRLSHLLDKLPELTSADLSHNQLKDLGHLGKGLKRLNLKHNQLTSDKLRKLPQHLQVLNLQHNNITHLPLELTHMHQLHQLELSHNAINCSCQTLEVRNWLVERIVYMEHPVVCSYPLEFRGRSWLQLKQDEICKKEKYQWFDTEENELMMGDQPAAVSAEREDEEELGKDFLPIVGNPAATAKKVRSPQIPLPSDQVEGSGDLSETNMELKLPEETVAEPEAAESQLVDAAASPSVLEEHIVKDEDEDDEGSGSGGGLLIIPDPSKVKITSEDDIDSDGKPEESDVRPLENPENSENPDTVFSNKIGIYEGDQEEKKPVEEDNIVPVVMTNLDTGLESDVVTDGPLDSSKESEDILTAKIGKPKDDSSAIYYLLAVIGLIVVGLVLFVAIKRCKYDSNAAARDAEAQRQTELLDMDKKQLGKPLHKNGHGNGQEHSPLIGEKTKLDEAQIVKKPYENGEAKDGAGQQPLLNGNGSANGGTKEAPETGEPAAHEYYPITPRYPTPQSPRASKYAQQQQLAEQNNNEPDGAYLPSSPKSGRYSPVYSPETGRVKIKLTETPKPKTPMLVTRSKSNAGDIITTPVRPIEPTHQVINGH

No constants are given. Whether binding was seen depends on the method and setting. In cells and extracts the contact can be indirect. Binding calls can cover weak binding; strength is not graded here.

For the assay, the target named is secreted form (the extracellular domain) of Myc-Wdp (Drosophila) (UniProt Q9W266). Nature of the assay: co-IP; Wg expressed with or without sec-Myc-Wdp in Dmel2 (S2) cells, 72 h at 25°C; 1 ml conditioned medium incubated with anti-cMyc antibody-agarose beads overnight at 4°C, washed, eluted with 6 M urea, blotted with anti-Wg.

B1: Wingless (ligand, UniProt P09615 18-468)
chain: GSSLSQVEGKQKSGRGRGSMWWGIAKVGEPNNITPIMYMDPAIHSTLRRKQRRLVRDNPGVLGALVKGANLAISECQHQFRNRRWNCSTRNFSRGKNLFGKIVDRGCRETSFIYAITSAAVTHSIARACSEGTIESCTCDYSHQSRSPQANHQAGSVAGVRDWEWGGCSDNIGFGFKFSREFVDTGERGRNLREKMNLHNNEAGRAHVQAEMRQECKCHGMSGSCTVKTCWMRLANFRVIGDNLKARFDGATRVQVTNSLRATNALAPVSPNAAGSNSVGSNGLIIPQSGLVYGEEEERMLNDHMPDILLENSHPISKIHHPNMPSPNSLPQAGQRGGRNGRRQGRKHNRYHFQLNPHNPEHKPPGSKDLVYLEPSPSFCEKNLRQGILGTHGRQCNETSLGVDGCGLMCCGRGYRRDEVVVVERCACTFHWCCEVKCKLCRTKKVIYTCL
In the case of B1, the binding result is recorded as “binds”.
